Test results from patent US10813909B2 (THE REGENTS OF THE UNIVERSITY OF CALIFORNIA, priority 2016, dated 2020).
“Also recorded” adds a separate entry of the source. At least one compound was matched to its structure with a doubt left.

What was measured:
BIRC5 = experiment: Cardiac glycosides, BIRC5 expression in pancreatic cancer; assay type: cell-based
[1] = test system: patient-derived pancreatic cancer cell line #5 (PDCL-5); experiment: Cell viability/proliferation (CellTiter-Glo, Gaussia luciferase), patient-derived line #5; assay type: cell-based, human; details: in vitro; metformin 500 μM, simvastatin 4 μM, digoxin 50 nM, alone or combined; paclitaxel 100 nM where added
[2] = test system: patient-derived pancreatic cancer cell line #15 (PDCL-15); experiment: Cell viability/proliferation (CellTiter-Glo, Gaussia luciferase), patient-derived line #15; assay type: cell-based, human; details: in vitro; metformin 500 μM, simvastatin 4 μM, digoxin 50 nM, alone or combined; paclitaxel 100 nM where added
MIA PaCa2 cells = experiment: Cell viability/proliferation, MIA PaCa2; assay type: cell-based, human; details: in vitro; metformin 500 μM, simvastatin 4 μM, digoxin 50 nM, alone or combined; paclitaxel 100 nM where added
PANC1 cells = experiment: Cell viability/proliferation, PANC1; assay type: cell-based, human; details: in vitro; metformin 500 μM, simvastatin 4 μM, digoxin 50 nM, alone or combined; paclitaxel 100 nM where added
AsPC1 cells = experiment: Cell viability, AsPC1; assay type: cell-based, human; details: in vitro
Capan2 cells = experiment: Cell viability, Capan2; assay type: cell-based, human; details: in vitro, with and without paclitaxel
BIRC5 mRNA [3] = experiment: BIRC5 mRNA expression in PDCL5 in vitro; assay type: cell-based, human
BIRC5 mRNA [4] = experiment: BIRC5 mRNA expression in PDCL15 in vitro; assay type: cell-based, human
BIRC5 promoter = experiment: High-throughput drug screening with BIRC5 synthetic promoter; assay type: cell-based, human; details: high-throughput screening of FDA-approved drug libraries, MIA PaCa2 cells
From the text: FIG. 12 is a graph illustrating BIRC5 SP high-throughput (HTS) drug screening in MIA PaCa2 cells, in accordance with one or more embodiments of the invention;
Pancreatic ductal adenocarcinoma (PDAC) is one of the most deadly forms of cancer and almost all patients with PDAC succumb to this lethal disease within months of diagnosis. To fight against PDAC, we utilized the concept of an “actionable gene”, on which action can be taken to alter disease progression or guide choice of therapy. We have identified actionable gene, BIRC5, for PDAC using microarray data sets and our own RNA-Seq data of PDAC patient specimens. […] .

cell cycle related genes = experiment: RNA-Seq/WGCNA cell cycle related gene expression in PDCLs in vitro
DUSP15 and RHOB = experiment: Cell death/apoptosis related gene expression in PDCL5 (RNA-Seq, real-time PCR); details: PDCL5 in vitro
DDX5 and SEMA7A = experiment: ATP/energy related gene expression in PDCL5 (real-time PCR, WGCNA purple module); details: PDCL #5 in vitro

SMILES | BIRC5 expression in pancreatic cancer (BIRC5) | cell viability / proliferation, patient-derived pancreatic cancer cell #5 [1] | cell viability / proliferation, patient-derived pancreatic cancer cell #15 [2] | cell viability / proliferation, MIA PaCa2 (MIA PaCa2 cells) | cell viability / proliferation, PANC1 (PANC1 cells) | cell viability, AsPC1 (AsPC1 cells) | cell viability, Capan2 (Capan2 cells) | BIRC5 mRNA expression, PDCL #5 (BIRC5 mRNA [3]) | BIRC5 mRNA expression, PDCL #15 (BIRC5 mRNA [4]) | expression from the BIRC5 promoter (BIRC5 promoter) | cell cycle related gene expression (incl. BIRC5) (cell cycle related genes) | cell death/apoptosis related gene expression (DUSP15, RHOB) (DUSP15 and RHOB) | ATP/energy related gene expression (DDX5, SEMA7A) (DDX5 and SEMA7A)
C[C@]12CC[C@H](O)C[C@H]1CC[C@@H]1[C@@H]2C[C@@H](O)[C@]2(C)[C@@H](C3=CC(=O)OC3)CC[C@]12O [Digoxigenin] | inhibit BIRC5 expression | – | – | – | – | – | – | – | – | – | – | – | –
CCC(C)(C)C(=O)O[C@H]1C[C@@H](C)C=C2C=C[C@H](C)[C@H](CC[C@@H]3C[C@@H](O)CC(=O)O3)[C@H]21 [Simvastatin, simvastatin] | – | suppresses; also recorded: suppress | suppresses; also recorded: suppress | suppresses; also recorded: suppress | suppresses; also recorded: suppress | suppress | suppress | suppress | suppress | target BIRC5 | strongly targeted; also recorded: significantly suppresses | do not have an effect | significantly inhibit; also recorded: significantly suppresses
